Test: solid-phase peptide synthesis
Conditions: whole synthesis

## H-D-Phe-Cys(Acm)-Phe-D-Trp-Lys-Thr-Cys(Acm)-Thr-OH
  crude yield: >95%

Source: US20010029035A1 (priority 2000, published 2001)
